Laboratory results published in publication PMC6086839, “Elongator mutation in mice induces neurodegeneration and ataxia-like behavior” (Nature Communications, 2018).
Where a chain is given by its changes, count along the chain named. Results are given in words; binding and its absence hold for the method and conditions named. Some binding calls cover weakened binding; strength is not graded here.

B1: mouse Elongator complex subunit 5 (mElp5) (protein, UniProt Q99L85 1-300)
chain: MLDSLLAIGGLVLLRDSVEWEGRSLLKALIKKSALRGEQVHVLGCEVSEEEFREGFDSDVNSRLVYHDLFRDPLNWSKPGEAVPEGPLKALRSMCKRTDHGSVTIALDSLSWLLCHIPCVTLCQALHALSQQNGDPGDNSLVEQVRVLGLLHEELHGPGSMGALNTLAHTEVTLSGKVDQTSASILCRRPQQRATYQTWWFSVLPDFSLTLHEGLPLRSELHPDHHTTQVDPTAHLTFNLHLSKKEREARDSLTLPFQFSSEKQKALLHPVPSRTTGHIFYEPDAFDDVDPEDPDDDLDI
B2: mouse Elp4 residues 49-389 (mElp4_(49-389)) (domain or fragment, UniProt Q9ER73 49-389)
chain: AGTRPSVRNGQLLVSTGLPALDQLLGGGLAVGTLLLIEEDKYNIYSPLLFKYFMAEGIINGHTLLVASAKENPAKILQELPAPLLDDNSKKELEDVHSAKTPEPNVNMKIAWRYQLQPKMEVGPVSSSRFGHYYDLSKRIPWELLQSSKWHGFFLPEHISPDLKGESCFLSCGYMRLLEFIQKSVYAEGFDGANPQKKQKNILRIGIQNLGSPLWGDDICCKENCDNNHRLTKFLYILRGLLRSSLSACIITMPAHLVQNKSITTRVRNLSDTVVGLESFIGSERETNPLYKDYHGLIHIRKIPRLNNLTCDESDVKDLAFKLKRKLFTIERLHLPPDLSD
B3: mouse Elp5 residues 1-250 (mElp5_(1-250)) (domain or fragment, UniProt Q99L85 1-250)
chain: MLDSLLAIGGLVLLRDSVEWEGRSLLKALIKKSALRGEQVHVLGCEVSEEEFREGFDSDVNSRLVYHDLFRDPLNWSKPGEAVPEGPLKALRSMCKRTDHGSVTIALDSLSWLLCHIPCVTLCQALHALSQQNGDPGDNSLVEQVRVLGLLHEELHGPGSMGALNTLAHTEVTLSGKVDQTSASILCRRPQQRATYQTWWFSVLPDFSLTLHEGLPLRSELHPDHHTTQVDPTAHLTFNLHLSKKEREAR
B4: mouse Elongator complex subunit 4 (mElp4) (protein, UniProt Q9ER73 1-422)
chain: MAAADTCGAGTLSSRSVASEAGQGGTSSFQRKGKASGGPGGGPRLLSIAGTRPSVRNGQLLVSTGLPALDQLLGGGLAVGTLLLIEEDKYNIYSPLLFKYFMAEGIINGHTLLVASAKENPAKILQELPAPLLDDNSKKELEDVHSAKTPEPNVNMKIAWRYQLQPKMEVGPVSSSRFGHYYDLSKRIPWELLQSSKWHGFFLPEHISPDLKGESCFLSCGYMRLLEFIQKSVYAEGFDGANPQKKQKNILRIGIQNLGSPLWGDDICCKENCDNNHRLTKFLYILRGLLRSSLSACIITMPAHLVQNKSITTRVRNLSDTVVGLESFIGSERETNPLYKDYHGLIHIRKIPRLNNLTCDESDVKDLAFKLKRKLFTIERLHLPPDLSDTVGRSSKQDLAASTARLGAGCSSMAEGKKHLDF
B5: yeast Elp5 residues 1-270 (yElp5_(1-270)) (domain or fragment, S. cerevisiae, UniProt P38874 1-270, looked up)
chain: MASSSHNPVILLKRILSLTESSPFILCLDSIAQTSYKLIQEFVHQSKSKGNEYPIVYISFETVNKPSYCTQFIDATQMDFVHLVKQIISYLPAATATQAKKHMVIIDSLNYISTEYITRFLSEIASPHCTMVATYHKDIKDENRTVIPDWNNNYPDKLTLLQFMATTIVDIDVVLTGTLDTEEVSELLNEFRIPRGLNNDIFQLRLVNKRKSGRSLEYDFIVNSNTHEYELLSTTKQEEESSSNGLETPEMLQGLTTFNLGTSNKQKLAK
notes: Elp5, yeast, residues 1-270; source: purified complex
B6: yeast Elongator complex subunit 4 (yElp4) (protein, UniProt Q02884 1-456)
chain: MSFRKRGEILNDRGSGLRGPLLRGPPRTSSTPLRTGNRRAPGNVPLSDTTARLKKLNIADESKTKMGLDSSHVGVRPSPATSQPTTSTGSADLDSILGHMGLPLGNSVLVEEQSTTEFHSILGKLFAAQGIVHNRISDSSADKTRNGDTHVIVLSLNQMFAKELPGIYKGSRKQMKKNLISEEESKVTVQNLNETQRSTPSRYKDLKIAWKYKLADEKRLGSPDRDDIQQNSEYKDYNHQFDITTRLMPAPIASELTFIAPTQPVSTILSQIEQTIKRNDKKLIRIVIPSLLHPAMYPPKMFESSEIIGLMHGVRSLVKKYYERVVLFASISIDIITPPLLVLLRNMFDSVINLEPFNQEMTEFLERVYKSQPGKIQHGLVHILKLPVFTDRGEMRVLKSEWAFKNGRKKFEIEQWGIPVDDAEGSAASEQSHSHSHSDEISHNIPAKKTKISLDY

Key:
[1] = molecular target: T1, mouse Elongator complex subunit 6 (mElp6), wild type (mouse) (UniProt Q8BK75); test: co-purification (NiNTA affinity, then SEC); subunits co-expressed in E. coli; truncated complexes purified as complexes and then used for Thermofluor; both purified
T1 sequence: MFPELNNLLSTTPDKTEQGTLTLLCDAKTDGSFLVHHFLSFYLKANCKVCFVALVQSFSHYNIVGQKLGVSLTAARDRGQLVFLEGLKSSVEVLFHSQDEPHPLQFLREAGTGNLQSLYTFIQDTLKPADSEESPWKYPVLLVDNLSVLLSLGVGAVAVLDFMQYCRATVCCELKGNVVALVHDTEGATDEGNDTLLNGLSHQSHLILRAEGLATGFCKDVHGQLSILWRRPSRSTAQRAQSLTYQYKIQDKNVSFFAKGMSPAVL

[2] = molecular target: T2, mouse Elongator complex subunit 6 with the wobbly mutation (mElp6L126Q) (mouse) (UniProt Q8BK75); test: as above
T2 sequence: T1 sequence with L126Q

[3] = molecular target: T1, mouse Elongator complex subunit 6 (mElp6), wild type (mouse); test: SEC; subunits co-expressed in E. coli, complex purified by NiNTA, then size-exclusion chromatography (Superdex 200) in 20 mM HEPES pH 7.5, 150 mM NaCl, 5 mM DTT; fractions analysed by SDS-PAGE; both purified
[4] = molecular target: T2, mouse Elongator complex subunit 6 with the wobbly mutation (mElp6L126Q) (mouse); test: as above
[5] = molecular target: T3, mouse Elongator complex subunit 5 (mElp5) (mouse) (UniProt Q99L85); test: co-purification (NiNTA affinity, then SEC); subunits co-expressed in E. coli; truncated complexes purified as complexes and then used for Thermofluor; both purified
T3 sequence: B1 chain

[6] = molecular target: T4, mouse Elp5 residues 1-250 (mElp5_(1-250)) (mouse) (UniProt Q99L85); test: as above
T4 sequence: B3 chain

[7] = molecular target: T3, mouse Elongator complex subunit 5 (mElp5) (mouse); test: SEC; subunits co-expressed in E. coli, complex purified by NiNTA, then size-exclusion chromatography (Superdex 200) in 20 mM HEPES pH 7.5, 150 mM NaCl, 5 mM DTT; fractions analysed by SDS-PAGE; both purified
[8] = molecular target: T5, yeast Elongator complex subunit 6 (yElp6) (S. cerevisiae) (UniProt Q04868); test: as above
T5 sequence: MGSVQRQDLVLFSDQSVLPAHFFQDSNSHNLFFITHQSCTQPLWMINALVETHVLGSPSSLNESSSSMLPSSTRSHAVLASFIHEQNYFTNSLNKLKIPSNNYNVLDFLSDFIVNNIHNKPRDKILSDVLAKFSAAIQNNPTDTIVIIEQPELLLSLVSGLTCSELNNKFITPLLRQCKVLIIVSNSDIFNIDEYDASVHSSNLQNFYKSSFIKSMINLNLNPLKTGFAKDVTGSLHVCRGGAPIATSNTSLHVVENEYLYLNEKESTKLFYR

[9] = molecular target: T6, yeast Elongator complex subunit 5 (yElp5) (S. cerevisiae) (UniProt P38874); test: as above
T6 sequence: B5 chain

Binder	binding [1]	binding [2]	binding [3]	binding [4]	binding [8]	also measured
B1	binds	binds	binds	binds		
B2	binds	binds				binding [5]: binds; binding [6]: binds
B3	binds	binds				
B4			binds	binds		binding [7]: binds
B5					binds	
B6					binds	binding [9]: binds
